Results as given in article PMC5087076.
No constants are given. Whether binding was seen depends on the method and setting. Binding seen in cells or lysates may run through a third protein. Some entries that bind do so weakly or less than the wild type.

Protein sequences, listed by entry. Tags and fused reporters are not part of them.
UniProt Q05397: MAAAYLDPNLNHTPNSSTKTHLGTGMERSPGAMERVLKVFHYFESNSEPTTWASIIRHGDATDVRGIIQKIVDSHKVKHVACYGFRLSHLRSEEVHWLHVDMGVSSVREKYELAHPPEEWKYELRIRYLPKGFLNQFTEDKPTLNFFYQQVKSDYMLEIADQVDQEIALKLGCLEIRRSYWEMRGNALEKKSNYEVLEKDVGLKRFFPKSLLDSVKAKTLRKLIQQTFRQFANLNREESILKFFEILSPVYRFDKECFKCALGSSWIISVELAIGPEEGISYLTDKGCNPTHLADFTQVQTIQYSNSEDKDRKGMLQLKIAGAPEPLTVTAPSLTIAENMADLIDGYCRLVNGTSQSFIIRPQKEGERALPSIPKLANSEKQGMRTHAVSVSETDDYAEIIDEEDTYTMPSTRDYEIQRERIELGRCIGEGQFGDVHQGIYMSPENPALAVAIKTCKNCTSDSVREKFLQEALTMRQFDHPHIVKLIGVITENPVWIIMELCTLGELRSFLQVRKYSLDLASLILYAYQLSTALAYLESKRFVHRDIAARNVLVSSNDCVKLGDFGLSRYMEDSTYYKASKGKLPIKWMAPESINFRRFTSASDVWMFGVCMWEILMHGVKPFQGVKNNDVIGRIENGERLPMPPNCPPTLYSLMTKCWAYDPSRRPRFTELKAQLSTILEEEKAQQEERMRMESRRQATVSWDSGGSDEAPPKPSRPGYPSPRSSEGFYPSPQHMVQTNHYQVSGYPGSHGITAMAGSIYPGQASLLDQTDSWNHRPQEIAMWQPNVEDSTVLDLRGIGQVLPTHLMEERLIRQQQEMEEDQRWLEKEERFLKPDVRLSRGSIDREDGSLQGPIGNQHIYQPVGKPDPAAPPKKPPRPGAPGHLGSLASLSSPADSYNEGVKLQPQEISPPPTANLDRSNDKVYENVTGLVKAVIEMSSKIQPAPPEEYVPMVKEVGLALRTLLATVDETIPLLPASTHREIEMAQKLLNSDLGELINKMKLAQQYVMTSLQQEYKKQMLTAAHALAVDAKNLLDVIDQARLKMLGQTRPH
UniProt Q14289: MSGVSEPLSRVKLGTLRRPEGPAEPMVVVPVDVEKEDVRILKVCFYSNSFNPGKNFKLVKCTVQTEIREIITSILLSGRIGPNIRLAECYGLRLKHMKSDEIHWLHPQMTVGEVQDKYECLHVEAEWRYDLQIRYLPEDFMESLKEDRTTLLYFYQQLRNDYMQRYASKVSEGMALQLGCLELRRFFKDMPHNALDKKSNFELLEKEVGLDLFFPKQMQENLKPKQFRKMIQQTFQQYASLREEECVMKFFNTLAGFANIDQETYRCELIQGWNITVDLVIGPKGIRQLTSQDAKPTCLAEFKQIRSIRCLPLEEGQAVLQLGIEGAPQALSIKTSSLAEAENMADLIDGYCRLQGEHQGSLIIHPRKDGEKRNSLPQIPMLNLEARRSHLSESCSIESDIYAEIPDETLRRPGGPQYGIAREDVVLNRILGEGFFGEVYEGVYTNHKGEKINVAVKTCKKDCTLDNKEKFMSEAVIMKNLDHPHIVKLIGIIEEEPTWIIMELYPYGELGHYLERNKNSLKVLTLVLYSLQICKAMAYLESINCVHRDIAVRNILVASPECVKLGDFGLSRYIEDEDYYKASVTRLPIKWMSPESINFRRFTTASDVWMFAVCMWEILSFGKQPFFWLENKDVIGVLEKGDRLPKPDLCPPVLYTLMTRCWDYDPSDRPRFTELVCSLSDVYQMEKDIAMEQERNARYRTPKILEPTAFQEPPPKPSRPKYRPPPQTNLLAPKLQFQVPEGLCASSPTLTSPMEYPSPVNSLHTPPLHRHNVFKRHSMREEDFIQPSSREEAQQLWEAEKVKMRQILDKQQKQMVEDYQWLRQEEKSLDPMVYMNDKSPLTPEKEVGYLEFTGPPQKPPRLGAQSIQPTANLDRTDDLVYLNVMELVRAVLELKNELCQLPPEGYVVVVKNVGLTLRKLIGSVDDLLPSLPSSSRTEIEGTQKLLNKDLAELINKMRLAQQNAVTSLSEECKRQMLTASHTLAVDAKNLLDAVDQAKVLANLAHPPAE
UniProt Q9ULZ3: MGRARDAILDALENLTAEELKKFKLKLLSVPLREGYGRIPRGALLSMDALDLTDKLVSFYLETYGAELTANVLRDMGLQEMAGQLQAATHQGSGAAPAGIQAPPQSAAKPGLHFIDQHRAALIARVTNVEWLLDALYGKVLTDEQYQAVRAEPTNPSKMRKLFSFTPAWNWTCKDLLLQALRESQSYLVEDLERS

Experiments:
[1] = molecular target: FAK (focal adhesion kinase), endogenous in HEK293T (human (endogenous in HEK293T)) (UniProt Q05397); assay: co-IP; extracts (1 mg, RIPA buffer) of HEK293T cells 48 h after transfection; immunoprecipitated with anti-FAK or anti-FLAG M2 (1 ug) for 24 h, Protein G magnetic beads 1 h at 4 C; Western blot; normal rabbit or mouse IgG as control
[2] = molecular target: Pyk2-Flag (proline-rich tyrosine kinase 2) (UniProt Q14289); assay: as above
[3] = molecular target: p-Pyk2 (phosphorylated Pyk2, Tyr402), endogenous in THP-1 (human (endogenous in THP-1)) (UniProt Q14289); assay: proximity ligation; in situ PLA (Duolink) in ASC-mCherry-expressing THP-1 cells, unstimulated or stimulated with nigericin (1 h) or poly(dA:dT) (4 h); probes rabbit anti-p-FAK or anti-p-Pyk2 with mouse anti-mCherry; confocal microscopy

## ASC-Flag (apoptosis-associated speck-like protein containing CARD, wild type) (from UniProt Q9ULZ3 1-195)
[1]
  binding: binds

## ASC (untagged wild type, overexpressed) (from UniProt Q9ULZ3 1-195)
[2]
  binding: binds

## ASC-mCherry (from UniProt Q9ULZ3 1-195)
[3]
  binding: binds
